Experimental data reported in article PMC12148952.
These are yes or no findings as the source states them, for the method shown. Binding seen in cells or lysates may run through a third protein. Some entries that bind do so weakly or less than the wild type.

Sequences of proteins named here, by UniProt entry; tags and fusion partners are left off. Residues count along the entry.
UniProt P17676: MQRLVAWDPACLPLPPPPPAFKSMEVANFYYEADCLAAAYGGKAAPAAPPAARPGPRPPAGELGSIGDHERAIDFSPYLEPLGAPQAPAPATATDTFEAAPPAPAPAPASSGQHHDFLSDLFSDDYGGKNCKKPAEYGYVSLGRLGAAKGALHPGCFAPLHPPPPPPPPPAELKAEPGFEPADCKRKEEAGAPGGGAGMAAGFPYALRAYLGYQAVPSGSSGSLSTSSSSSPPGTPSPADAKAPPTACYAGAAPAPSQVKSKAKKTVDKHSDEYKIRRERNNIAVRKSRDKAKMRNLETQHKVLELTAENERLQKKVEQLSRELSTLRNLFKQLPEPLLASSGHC
UniProt Q68DV7, residues 24-783: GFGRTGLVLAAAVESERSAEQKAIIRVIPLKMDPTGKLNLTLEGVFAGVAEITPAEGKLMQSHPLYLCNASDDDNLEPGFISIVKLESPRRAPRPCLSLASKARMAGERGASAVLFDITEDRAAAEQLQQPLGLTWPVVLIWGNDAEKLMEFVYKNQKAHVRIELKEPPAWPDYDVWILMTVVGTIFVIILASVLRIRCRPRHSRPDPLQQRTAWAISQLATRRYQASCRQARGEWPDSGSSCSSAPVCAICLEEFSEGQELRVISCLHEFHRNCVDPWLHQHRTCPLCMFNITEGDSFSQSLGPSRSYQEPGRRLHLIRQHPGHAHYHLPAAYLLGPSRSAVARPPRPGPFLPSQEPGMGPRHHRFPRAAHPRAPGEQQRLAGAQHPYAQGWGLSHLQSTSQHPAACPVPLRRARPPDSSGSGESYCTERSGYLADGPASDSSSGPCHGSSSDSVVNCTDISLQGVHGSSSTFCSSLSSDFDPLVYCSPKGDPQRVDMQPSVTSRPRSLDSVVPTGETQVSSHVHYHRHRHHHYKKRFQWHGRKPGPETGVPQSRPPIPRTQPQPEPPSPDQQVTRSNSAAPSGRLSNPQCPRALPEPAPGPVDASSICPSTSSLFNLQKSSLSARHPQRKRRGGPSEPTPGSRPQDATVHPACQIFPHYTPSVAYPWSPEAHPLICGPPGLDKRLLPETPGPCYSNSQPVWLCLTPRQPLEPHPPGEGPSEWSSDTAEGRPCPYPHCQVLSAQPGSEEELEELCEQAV

Biological target: CCAAT enhancer binding protein beta (C/EBPβ) (UniProt P17676)
Test: co-IP; lysates of cells 48 h after transfection of the relevant plasmids; overnight at 4°C with specific antibodies, protein A or G beads, Western blot; also done in cells with MIR503HG overexpression or knockdown

**Q.** How did the binding turn out when “E3 ubiquitin ligase RNF43 (from UniProt Q68DV7 24-783) (enzyme)” was run?
**A.** The binding was “binds”.
